Experimental data: publication doi:10.1101/2020.12.30.424835 (bioRxiv, 2020)
Results are given in words; binding and its absence hold for the method and conditions named. For part of these data: Tags and fused reporters may be left off the sequences shown.

Protein sequences, listed by entry. Tags and fused reporters are not part of them. Lines headed by an entry give the natural chain unless they say otherwise; changes in a name come on top.
UniProt P40537: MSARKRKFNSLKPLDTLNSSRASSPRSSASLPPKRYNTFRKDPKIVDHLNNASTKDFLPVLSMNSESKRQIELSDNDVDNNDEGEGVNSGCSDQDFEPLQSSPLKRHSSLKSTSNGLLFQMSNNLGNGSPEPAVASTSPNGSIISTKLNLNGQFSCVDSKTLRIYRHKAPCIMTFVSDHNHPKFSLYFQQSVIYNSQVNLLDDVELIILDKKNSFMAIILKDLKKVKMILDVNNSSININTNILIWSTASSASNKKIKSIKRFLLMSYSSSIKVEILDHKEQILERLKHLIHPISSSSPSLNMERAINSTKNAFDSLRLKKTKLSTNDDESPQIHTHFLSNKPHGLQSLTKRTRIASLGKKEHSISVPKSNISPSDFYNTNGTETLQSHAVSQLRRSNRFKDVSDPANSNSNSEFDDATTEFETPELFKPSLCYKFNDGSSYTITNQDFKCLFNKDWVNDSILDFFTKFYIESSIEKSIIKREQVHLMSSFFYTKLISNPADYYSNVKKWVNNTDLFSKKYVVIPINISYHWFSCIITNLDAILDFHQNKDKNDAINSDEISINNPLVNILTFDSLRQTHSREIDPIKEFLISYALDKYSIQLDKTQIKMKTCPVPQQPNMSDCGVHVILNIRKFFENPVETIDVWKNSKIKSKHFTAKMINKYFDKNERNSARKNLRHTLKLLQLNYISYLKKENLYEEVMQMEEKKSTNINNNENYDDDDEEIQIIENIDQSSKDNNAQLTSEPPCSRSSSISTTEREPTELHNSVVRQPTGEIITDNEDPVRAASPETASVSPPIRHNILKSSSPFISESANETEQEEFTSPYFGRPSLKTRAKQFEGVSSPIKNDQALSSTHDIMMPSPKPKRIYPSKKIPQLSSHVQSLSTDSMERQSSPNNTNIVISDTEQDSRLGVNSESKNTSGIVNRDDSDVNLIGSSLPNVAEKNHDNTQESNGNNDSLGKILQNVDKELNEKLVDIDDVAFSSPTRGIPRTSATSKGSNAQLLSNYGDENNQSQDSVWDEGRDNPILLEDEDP
UniProt Q12748: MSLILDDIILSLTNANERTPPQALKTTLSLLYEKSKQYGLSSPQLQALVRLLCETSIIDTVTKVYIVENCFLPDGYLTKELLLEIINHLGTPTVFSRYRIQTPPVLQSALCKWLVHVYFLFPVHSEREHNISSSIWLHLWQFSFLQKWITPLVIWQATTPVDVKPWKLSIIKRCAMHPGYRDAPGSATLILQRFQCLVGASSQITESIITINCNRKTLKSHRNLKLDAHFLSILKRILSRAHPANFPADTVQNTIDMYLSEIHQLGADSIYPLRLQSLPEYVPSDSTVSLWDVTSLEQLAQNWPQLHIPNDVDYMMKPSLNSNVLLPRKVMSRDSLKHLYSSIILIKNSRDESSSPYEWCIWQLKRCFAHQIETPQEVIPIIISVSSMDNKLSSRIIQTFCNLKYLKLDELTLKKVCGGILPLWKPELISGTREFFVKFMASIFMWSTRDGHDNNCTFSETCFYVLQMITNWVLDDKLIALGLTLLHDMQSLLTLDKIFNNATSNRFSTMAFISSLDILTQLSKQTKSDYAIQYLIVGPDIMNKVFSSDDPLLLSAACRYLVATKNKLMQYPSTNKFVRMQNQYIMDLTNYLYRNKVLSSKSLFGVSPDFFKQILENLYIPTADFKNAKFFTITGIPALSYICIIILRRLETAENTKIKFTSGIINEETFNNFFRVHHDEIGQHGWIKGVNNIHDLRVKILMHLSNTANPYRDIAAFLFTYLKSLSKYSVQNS
UniProt Q12262: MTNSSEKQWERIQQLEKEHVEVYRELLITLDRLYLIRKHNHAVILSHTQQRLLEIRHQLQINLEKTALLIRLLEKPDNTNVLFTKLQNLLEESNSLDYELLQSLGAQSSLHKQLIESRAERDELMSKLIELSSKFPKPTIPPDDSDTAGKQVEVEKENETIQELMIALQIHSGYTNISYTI
UniProt P47167: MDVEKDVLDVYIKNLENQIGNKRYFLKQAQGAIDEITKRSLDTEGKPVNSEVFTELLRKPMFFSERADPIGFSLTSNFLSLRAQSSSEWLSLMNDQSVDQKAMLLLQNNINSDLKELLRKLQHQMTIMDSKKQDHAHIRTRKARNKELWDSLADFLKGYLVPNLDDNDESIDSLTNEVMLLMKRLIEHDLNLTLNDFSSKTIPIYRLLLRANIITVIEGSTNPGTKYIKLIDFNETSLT

Tests used:
[1] = target: T1, GST-Ulp2-927-937 with 3A substitutions (V931A,L933A,I934A) (yeast) (UniProt P40537); test: pull-down
T1 sequence: DDSDANAAGSS

[2] = target: T2, GST-Ulp2-SIM (Ulp2-717-734) (yeast) (UniProt P40537); test: pull-down
T2 sequence: NYDDDDEEIQIIENIDQS

[3] = target: T3, FITC-Ulp2-KIM peptide (fITC-AHA-…; Ulp2-927-937) (yeast); test: fluorescence polarisation
T3 sequence (peptide, fITC-AHA on the N-terminus): DDSDVNLIGSS

Row | binding [1] | binding [2] | binding [3] | Substance
1 | no binding | no binding | – | Ctf3 complex (Ctf3, Mcm16, Mcm22), wild type, recombinant (from UniProt Q12748;Q12262;P47167)
2 | – | – | no binding | Ctf3c containing the Ctf3-2A protein (Ctf3-R594A,K596A) (from UniProt Q12748;Q12262;P47167) (complex)
